The values that follow come from publication PMC10436496.

Amino acid sequences for entries named in this document (tags omitted).
UniProt P01106: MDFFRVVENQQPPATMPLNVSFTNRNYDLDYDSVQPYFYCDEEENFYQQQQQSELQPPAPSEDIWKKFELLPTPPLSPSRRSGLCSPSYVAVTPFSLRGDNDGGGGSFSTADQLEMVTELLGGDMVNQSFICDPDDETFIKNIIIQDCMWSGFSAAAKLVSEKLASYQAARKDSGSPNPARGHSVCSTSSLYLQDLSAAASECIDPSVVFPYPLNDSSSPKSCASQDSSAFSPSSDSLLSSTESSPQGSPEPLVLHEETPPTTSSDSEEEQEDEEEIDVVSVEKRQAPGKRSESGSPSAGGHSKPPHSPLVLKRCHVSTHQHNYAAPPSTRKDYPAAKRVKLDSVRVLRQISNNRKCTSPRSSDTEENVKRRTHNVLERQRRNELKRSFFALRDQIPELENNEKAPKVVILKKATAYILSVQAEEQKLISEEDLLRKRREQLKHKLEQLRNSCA

Results are given in words; binding and its absence hold for the method and conditions named. In cells and extracts the contact can be indirect. Some entries that bind do so weakly or less than the wild type.

For this assay, the target named is c-MYC, endogenous in SW48 and Lovo cells (human (endogenous in SW48 and Lovo)) (UniProt P01106). Kind of assay: co-IP; endogenous proteins in SW48 or Lovo lysate; c-MYC antibody on Protein A/G magnetic beads, lysate rotated overnight at 4 °C, western blot. A general note: In western blotting, separated proteins are transferred to a membrane and probed.

B1: NEK8, endogenous in SW48 and Lovo cells (enzyme, UniProt Q86SG6 1-692)
chain: MEKYERIRVVGRGAFGIVHLCLRKADQKLVIIKQIPVEQMTKEERQAAQNECQVLKLLNHPNVIEYYENFLEDKALMIAMEYAPGGTLAEFIQKRCNSLLEEETILHFFVQILLALHHVHTHLILHRDLKTQNILLDKHRMVVKIGDFGISKILSSKSKAYTVVGTPCYISPELCEGKPYNQKSDIWALGCVLYELASLKRAFEAANLPALVLKIMSGTFAPISDRYSPELRQLVLSLLSLEPAQRPPLSHIMAQPLCIRALLNLHTDVGSVRMRRAEKSVAPSNTGSRTTSVRCRGIPRGPVRPAIPPPLSSVYAWGGGLGTPLRLPMLNTEVVQVAAGRTQKAGVTRSGRLILWEAPPLGAGGGSLLPGAVEQPQPQFISRFLEGQSGVTIKHVACGDFFTACLTDRGIIMTFGSGSNGCLGHGSLTDISQPTIVEALLGYEMVQVACGASHVLALSTERELFAWGRGDSGRLGLGTRESHSCPQQVPMPPGQEAQRVVCGIDSSMILTVPGQALACGSNRFNKLGLDHLSLGEEPVPHQQVEEALSFTLLGSAPLDQEPLLSIDLGTAHSAAVTASGDCYTFGSNQHGQLGTNTRRGSRAPCKVQGLEGIKMAMVACGDAFTVAIGAESEVYSWGKGARGRLGRRDEDAGLPRPVQLDETHPYTVTSVSCCHGNTLLAVRSVTDEPVPP
In the case of B1, the binding result is “binds”.
